Results are given in words; binding and its absence hold for the method and conditions named. Binding seen in cells or lysates may run through a third protein. Some binding calls cover weakened binding; strength is not graded here.
Columns and labels:
[1] = target: HA-tagged TRIM25^CS (C50S/C53S), E3 ligase-defective mutant, expressed in HEK-293 cells (human) (UniProt Q14258); assay: co-IP; HEK-293 cells expressing PPARγ, TRIM25 or their mutants; total cell lysates incubated with anti-HA antibody at 4 °C; western blotting
[2] = target: HA-tagged TRIM25^WT expressed in HEK-293 cells (human) (UniProt Q14258); assay: as above
[3] = target: T1, PPARγ, endogenous in 3T3-L1 adipocytes (mouse (endogenous in 3T3-L1)), P37238; assay: co-IP; endogenous proteins; 3T3-L1 adipocytes lysed with binding buffer, lysates incubated with anti-PPARγ or TRIM25 antibodies, western blotting; conditions: remark: other sources report otherwise
T1 chain: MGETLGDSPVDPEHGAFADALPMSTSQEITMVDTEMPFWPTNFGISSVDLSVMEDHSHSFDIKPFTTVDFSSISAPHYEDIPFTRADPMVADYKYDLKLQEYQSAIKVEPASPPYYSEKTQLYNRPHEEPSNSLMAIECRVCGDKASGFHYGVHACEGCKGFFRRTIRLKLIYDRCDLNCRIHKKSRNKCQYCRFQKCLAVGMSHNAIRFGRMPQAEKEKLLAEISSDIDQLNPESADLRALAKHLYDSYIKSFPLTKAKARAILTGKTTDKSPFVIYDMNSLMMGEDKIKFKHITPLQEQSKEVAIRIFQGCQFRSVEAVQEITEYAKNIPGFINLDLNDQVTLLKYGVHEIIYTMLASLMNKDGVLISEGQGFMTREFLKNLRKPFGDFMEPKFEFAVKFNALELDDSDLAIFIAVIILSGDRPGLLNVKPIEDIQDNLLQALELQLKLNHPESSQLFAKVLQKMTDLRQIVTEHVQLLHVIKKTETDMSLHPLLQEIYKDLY

By UniProt entry, the sequences of proteins in these tests, tags left out. Where a name states a change or a piece, a line headed by the entry shows the natural chain unless it says otherwise.
UniProt Q14258: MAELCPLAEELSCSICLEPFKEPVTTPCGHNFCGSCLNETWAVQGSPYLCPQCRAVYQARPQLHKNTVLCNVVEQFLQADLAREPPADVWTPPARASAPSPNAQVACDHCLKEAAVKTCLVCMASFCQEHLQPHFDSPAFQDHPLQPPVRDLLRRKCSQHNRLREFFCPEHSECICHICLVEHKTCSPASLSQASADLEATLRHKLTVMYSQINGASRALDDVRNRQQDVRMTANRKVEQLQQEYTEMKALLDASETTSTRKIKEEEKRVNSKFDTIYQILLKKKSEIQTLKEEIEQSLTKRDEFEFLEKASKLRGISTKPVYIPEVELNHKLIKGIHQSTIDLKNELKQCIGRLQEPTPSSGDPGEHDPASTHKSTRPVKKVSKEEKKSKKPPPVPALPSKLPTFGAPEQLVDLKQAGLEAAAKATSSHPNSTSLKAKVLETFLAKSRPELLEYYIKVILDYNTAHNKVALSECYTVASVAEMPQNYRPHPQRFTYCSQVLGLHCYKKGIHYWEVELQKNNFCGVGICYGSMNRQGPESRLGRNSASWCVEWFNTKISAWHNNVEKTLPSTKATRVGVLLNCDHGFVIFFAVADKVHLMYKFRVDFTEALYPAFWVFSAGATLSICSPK

With “PPARγ expressed in HEK-293 cells (FLAG-epitope tagged WT PPARγ vector) (from UniProt P37238 1-505)” the binding [1] was “binds” and the binding [2] was “binds”.

B1: TRIM25, endogenous in 3T3-L1 adipocytes, Q61510 1-634 (protein)
chain: MAELNPLAEELSCSVCLELFKEPVTTPCGHNFCMSCLDETWVVQGPPYRCPQCRKVYQVRPQLQKNTVMCAVVEQFLQAEQARTPVDDWTPPARFSASSAATQVACDHCLTEIAVKTCLVCMASFCQEHLRPHFDSPAFQDHPLQSPIRDLLRRKCTQHNRLRELFCPEHGECICHICLVEHKTCSPTTLSQASADLEYKLRNKLTIMHSHINGATKALEDVRSKQQCVQDSMKRKMEQLRQEYMEMKAVIDAAETSSLRKLKEEEKRVYGKFDTIYQVLVKKKSEMQKLKAEVELIMDKGDEFEFLEKAAKLQGESTKPVYIPKIDLDHDLIMGIYQGAADLKSELKHSIKKLQKKSEEHNGSGNKGDQTQSTFKPVQPSKKTIQEKKTKKTPVAPGPPSHFSPNKLPTFGAPGQSLDSKATSPDAAPKASAAQPDSVGVKAKVLENFLTKSRTELLEYFVKVIFDYNTAHNKVSLSNKYTTASVSDGLQHYRSHPQRFTYCSQVLGLHCYKNGIHYWEVELQKNNFCGVGICYGSMERQGPESRLGRNPNSWCVEWFNNKISAWHNNVEKTLPSTKATRVGVLLNCDHGFVIFFAVTEKVHLMYKFKVDFTEALYPAFWVFSAGTTLSICSK
In the case of B1, the binding [3] is reported as “binds”.

Source: paper PMC6189217
